{"source": "PubChem BioAssay AID504764 | Drosophila RNAi Screening Center – 2011", "purpose": "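Genome-wide screen for regulators of Notch-driven gene expression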 (primary screen)", "cell system": "Drosophila Kc167 cells", "reagents": "long dsRNA against Drosophila genes", "time to read-out": "about 5 days (4 days dsRNA, then 24 h after transfection)", "challenge": "transfection of constitutively active membrane-tethered Notch lacking the extracellular domain, read 24 h later", "detection": "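Light from a Notch-responsive E(spl)m3 luciferase reporter under active Notch, with control-promoter and no-Notch reporter wells to normalise; raw counts from paired wells a and b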", "direction": "induced reporter light, run 1, well a and induced reporter light, run 1, well b: higher = more light from the Notch target reporter with active Notch; control promoter light, run 1, well a and control promoter light, run 1, well b: higher = more light from the viral control promoter (cell number, transfection, viability); uninduced reporter light, run 1, well a: higher = more light from the Notch target reporter without active Notch", "hit rule": "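Hit if the duplicate-averaged log2 ratio of induced to control-promoter light gives a plate-wise z beyond ±2, or induced to uninduced beyond ±1.8; weak-control or discordant-duplicate wells dropped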", "meaning of the calls": "active = modifier hit (raised or lowered Notch signal); inactive = not a hit", "note": "The screen tested about 22,000 reagents; shown is an unselected part of those that have a named target and a result. In the full data, 403 (1.9%) got an active call. 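Unnormalised raw counts per well; ratio z-scores behind the hit calls and whether each hit raises or lowers signal are not deposited.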 Not stated in the record: the amount of reagent."}
{"Target gene": "CG42238", "DRSC id": "DRSC03180", "induced reporter light, run 1, well a": 2.33e5, "induced reporter light, run 1, well b": 2.07e5, "control promoter light, run 1, well a": 1.64e5, "control promoter light, run 1, well b": 1.64e5, "uninduced reporter light, run 1, well a": 15090, "call": "inactive"}
{"Target gene": "CG5916", "DRSC id": "DRSC15917", "induced reporter light, run 1, well a": 2.04e5, "induced reporter light, run 1, well b": 1.98e5, "control promoter light, run 1, well a": 2.76e5, "control promoter light, run 1, well b": 2.72e5, "uninduced reporter light, run 1, well a": 18170, "call": "inactive"}
{"Target gene": "CG1545", "DRSC id": "DRSC21532", "call": "inactive"}
{"Target gene": "PolZ2 (DNA polymerase zeta subunit 2)", "DRSC id": "DRSC12325", "induced reporter light, run 1, well a": 88685, "induced reporter light, run 1, well b": 1.07e5, "control promoter light, run 1, well a": 82020, "control promoter light, run 1, well b": 70535, "uninduced reporter light, run 1, well a": 4920, "call": "inactive"}
{"Target gene": "cert (ceramide transfer protein)", "DRSC id": "DRSC09674", "induced reporter light, run 1, well a": 74635, "induced reporter light, run 1, well b": 79300, "control promoter light, run 1, well a": 71305, "control promoter light, run 1, well b": 22135, "uninduced reporter light, run 1, well a": 8080, "call": "inactive"}
{"Target gene": "wts (warts)", "DRSC id": "DRSC17096", "induced reporter light, run 1, well a": 3925, "induced reporter light, run 1, well b": 3910, "control promoter light, run 1, well a": 8805, "control promoter light, run 1, well b": 8300, "uninduced reporter light, run 1, well a": 2750, "call": "inactive"}
{"Target gene": "CG46301", "DRSC id": "DRSC01916", "induced reporter light, run 1, well a": 1.12e5, "induced reporter light, run 1, well b": 1.15e5, "control promoter light, run 1, well a": 99745, "control promoter light, run 1, well b": 1.33e5, "uninduced reporter light, run 1, well a": 10235, "call": "inactive"}
{"Target gene": "CG34200", "DRSC id": "DRSC04804", "induced reporter light, run 1, well a": 82095, "induced reporter light, run 1, well b": 97450, "control promoter light, run 1, well a": 1.31e5, "control promoter light, run 1, well b": 1.18e5, "uninduced reporter light, run 1, well a": 4190, "call": "inactive"}
{"Target gene": "Ser12 (Serine protease 12)", "DRSC id": "DRSC00786", "induced reporter light, run 1, well a": 1.23e5, "induced reporter light, run 1, well b": 1.12e5, "control promoter light, run 1, well a": 1.08e5, "control promoter light, run 1, well b": 52490, "uninduced reporter light, run 1, well a": 8060, "call": "inactive"}
{"Target gene": "CG12948", "DRSC id": "DRSC14576", "induced reporter light, run 1, well a": 72445, "induced reporter light, run 1, well b": 79560, "control promoter light, run 1, well a": 77450, "control promoter light, run 1, well b": 57620, "uninduced reporter light, run 1, well a": 5510, "call": "inactive"}
{"Target gene": "CG18810", "DRSC id": "DRSC02701", "induced reporter light, run 1, well a": 48710, "induced reporter light, run 1, well b": 50205, "control promoter light, run 1, well a": 52505, "control promoter light, run 1, well b": 47065, "uninduced reporter light, run 1, well a": 2555, "call": "inactive"}
{"Target gene": "CG15370", "DRSC id": "DRSC18042", "induced reporter light, run 1, well a": 85285, "induced reporter light, run 1, well b": 64710, "control promoter light, run 1, well a": 1.03e5, "control promoter light, run 1, well b": 78140, "uninduced reporter light, run 1, well a": 10075, "call": "inactive"}

4 entries already listed, arranged by “control promoter light, run 1, well b”, descending.
{"Target gene": "CG34200", "DRSC id": "DRSC04804", "induced reporter light, run 1, well a": 82095, "induced reporter light, run 1, well b": 97450, "control promoter light, run 1, well a": 1.31e5, "control promoter light, run 1, well b": 1.18e5, "uninduced reporter light, run 1, well a": 4190, "call": "inactive"}
{"Target gene": "CG12948", "DRSC id": "DRSC14576", "induced reporter light, run 1, well a": 72445, "induced reporter light, run 1, well b": 79560, "control promoter light, run 1, well a": 77450, "control promoter light, run 1, well b": 57620, "uninduced reporter light, run 1, well a": 5510, "call": "inactive"}
{"Target gene": "Ser12 (Serine protease 12)", "DRSC id": "DRSC00786", "induced reporter light, run 1, well a": 1.23e5, "induced reporter light, run 1, well b": 1.12e5, "control promoter light, run 1, well a": 1.08e5, "control promoter light, run 1, well b": 52490, "uninduced reporter light, run 1, well a": 8060, "call": "inactive"}
{"Target gene": "CG18810", "DRSC id": "DRSC02701", "induced reporter light, run 1, well a": 48710, "induced reporter light, run 1, well b": 50205, "control promoter light, run 1, well a": 52505, "control promoter light, run 1, well b": 47065, "uninduced reporter light, run 1, well a": 2555, "call": "inactive"}

Next entries:
{"Target gene": "csw (corkscrew)", "DRSC id": "DRSC18756", "induced reporter light, run 1, well a": 1.13e5, "induced reporter light, run 1, well b": 1.23e5, "control promoter light, run 1, well a": 1.03e5, "control promoter light, run 1, well b": 1.15e5, "uninduced reporter light, run 1, well a": 8780, "call": "active"}
{"Target gene": "CG7025", "DRSC id": "DRSC03002", "induced reporter light, run 1, well a": 1.28e5, "induced reporter light, run 1, well b": 1.69e5, "control promoter light, run 1, well a": 2.14e5, "control promoter light, run 1, well b": 1.49e5, "uninduced reporter light, run 1, well a": 8105, "call": "inactive"}
{"Target gene": "su(Hw) (suppressor of Hairy wing)", "DRSC id": "DRSC17074", "induced reporter light, run 1, well a": 1.22e5, "induced reporter light, run 1, well b": 1.17e5, "control promoter light, run 1, well a": 80035, "control promoter light, run 1, well b": 88045, "uninduced reporter light, run 1, well a": 11100, "call": "inactive"}
{"Target gene": "CG9948", "DRSC id": "DRSC11104", "induced reporter light, run 1, well a": 1.09e5, "induced reporter light, run 1, well b": 84000, "control promoter light, run 1, well a": 62690, "control promoter light, run 1, well b": 50125, "uninduced reporter light, run 1, well a": 7545, "call": "inactive"}
{"Target gene": "CSN6 (COP9 signalosome subunit 6)", "DRSC id": "DRSC16593", "induced reporter light, run 1, well a": 1.59e5, "induced reporter light, run 1, well b": 1.41e5, "control promoter light, run 1, well a": 1.24e5, "control promoter light, run 1, well b": 1.17e5, "uninduced reporter light, run 1, well a": 14945, "call": "inactive"}
{"Target gene": "CG42240", "DRSC id": "DRSC18097", "induced reporter light, run 1, well a": 1.91e5, "induced reporter light, run 1, well b": 1.49e5, "control promoter light, run 1, well a": 1.92e5, "control promoter light, run 1, well b": 1.83e5, "uninduced reporter light, run 1, well a": 15005, "call": "inactive"}
{"Target gene": "tra (transformer)", "DRSC id": "DRSC11405", "induced reporter light, run 1, well a": 1.69e5, "induced reporter light, run 1, well b": 1.76e5, "control promoter light, run 1, well a": 2.14e5, "control promoter light, run 1, well b": 2.17e5, "uninduced reporter light, run 1, well a": 11715, "call": "inactive"}
{"Target gene": "beta-PheRS (Phenylalanyl-tRNA synthetase, beta-subunit)", "DRSC id": "DRSC15859", "induced reporter light, run 1, well a": 47505, "induced reporter light, run 1, well b": 52895, "control promoter light, run 1, well a": 83470, "control promoter light, run 1, well b": 79175, "uninduced reporter light, run 1, well a": 6680, "call": "active"}
{"Target gene": "CG10680", "DRSC id": "DRSC02093", "induced reporter light, run 1, well a": 45955, "induced reporter light, run 1, well b": 40245, "control promoter light, run 1, well a": 46210, "control promoter light, run 1, well b": 43115, "uninduced reporter light, run 1, well a": 2975, "call": "inactive"}
{"Target gene": "CG10274", "DRSC id": "DRSC09716", "induced reporter light, run 1, well a": 1.43e5, "induced reporter light, run 1, well b": 1.04e5, "control promoter light, run 1, well a": 81225, "control promoter light, run 1, well b": 24940, "uninduced reporter light, run 1, well a": 10605, "call": "inactive"}
{"Target gene": "CG5149", "DRSC id": "DRSC02819", "induced reporter light, run 1, well a": 1.63e5, "induced reporter light, run 1, well b": 1.79e5, "control promoter light, run 1, well a": 1.98e5, "control promoter light, run 1, well b": 2.11e5, "uninduced reporter light, run 1, well a": 17970, "call": "inactive"}
{"Target gene": "Tsp96F (Tetraspanin 96F)", "DRSC id": "DRSC14147", "induced reporter light, run 1, well a": 2.11e5, "induced reporter light, run 1, well b": 2.26e5, "control promoter light, run 1, well a": 3.01e5, "control promoter light, run 1, well b": 2.69e5, "uninduced reporter light, run 1, well a": 14110, "call": "inactive"}
